Results taken from publication PMC7364481.

Protein sequences, listed by entry. Tags and fused reporters are not part of them. Residues count along the entry.
UniProt O35085, 220-392 S312A: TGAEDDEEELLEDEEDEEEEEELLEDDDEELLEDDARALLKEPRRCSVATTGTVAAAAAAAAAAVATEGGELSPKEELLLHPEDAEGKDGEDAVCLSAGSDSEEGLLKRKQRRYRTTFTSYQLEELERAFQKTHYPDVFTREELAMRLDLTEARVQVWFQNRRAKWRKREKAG
UniProt O35085, 220-392 S316E: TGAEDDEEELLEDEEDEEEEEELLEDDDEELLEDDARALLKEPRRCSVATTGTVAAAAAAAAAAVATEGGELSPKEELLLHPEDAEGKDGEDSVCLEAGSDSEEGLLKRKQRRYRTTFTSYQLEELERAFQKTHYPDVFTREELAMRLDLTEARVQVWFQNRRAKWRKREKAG
UniProt O35085, 220-392 S319E: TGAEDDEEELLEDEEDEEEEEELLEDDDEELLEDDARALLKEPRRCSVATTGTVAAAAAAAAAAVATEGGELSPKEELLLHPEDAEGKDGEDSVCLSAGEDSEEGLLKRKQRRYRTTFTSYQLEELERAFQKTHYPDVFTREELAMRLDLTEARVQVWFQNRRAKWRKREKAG
UniProt O35085, 220-392 S316A: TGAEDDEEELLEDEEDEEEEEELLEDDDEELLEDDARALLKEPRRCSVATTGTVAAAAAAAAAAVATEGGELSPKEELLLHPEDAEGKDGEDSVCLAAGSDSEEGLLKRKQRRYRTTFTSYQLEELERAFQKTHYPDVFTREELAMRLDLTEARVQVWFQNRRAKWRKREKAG
UniProt O35085, 220-392 S319A: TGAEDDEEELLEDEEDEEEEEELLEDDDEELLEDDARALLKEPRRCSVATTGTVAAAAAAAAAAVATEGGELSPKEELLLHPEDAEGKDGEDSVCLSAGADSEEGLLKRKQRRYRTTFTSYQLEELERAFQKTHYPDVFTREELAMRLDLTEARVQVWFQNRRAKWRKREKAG
UniProt O35085, 220-392 S312E: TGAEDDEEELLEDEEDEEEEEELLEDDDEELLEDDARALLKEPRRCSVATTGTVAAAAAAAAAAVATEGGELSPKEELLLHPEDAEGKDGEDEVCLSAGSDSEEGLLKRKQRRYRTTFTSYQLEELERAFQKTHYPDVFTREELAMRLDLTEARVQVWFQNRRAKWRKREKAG

How the values were obtained:
Assay in all cases: EMSA
Details in all cases: 5 ug protein per lane, LightShift chemiluminescent EMSA kit, 6% polyacrylamide gel, binding buffer, recombinant protein, residues …, protein details: N-terminal GST (pGEX-4T-2), label: biotin
[1] = target: GST-ARX(220-392) S312 LOF S312A (UniProt O35085)
[2] = target: GST-ARX(220-392) S316 GOF S316E (UniProt O35085)
[3] = target: GST-ARX(220-392) S319 GOF S319E (UniProt O35085)
[4] = target: GST-ARX(220-392) S316 LOF S316A (UniProt O35085)
[5] = target: GST-ARX(220-392) S319 LOF S319A (UniProt O35085)
[6] = target: GST-ARX(220-392) S312 GOF S312E (UniProt O35085)

Measured: binding result

TCTTAACATTAAGGTAATTAAATATGAGCTCAC (double strand) [SIX1 probe]
binds: all assays above

The exact form of at least one protein or probe is not confirmed. At least one verdict was read from the data and is not stated in words by the source.
